At least one structure is not confirmed: it was looked up by name or label, or the drawing left a doubt.
Tested on: LDL (low-density lipoproteins)
Experiment: In vitro LDL oxidation by copper
Assay type: biochemical
Conditions: at 10^-4 M
Experimental: A comparative study between the product of Example 1 and the reference substances (benfluorex, dimethyl biguanide) with respect to in vitro LDL oxidation was carried out.

## CN(C)C(=N)NC(=N)N [Dimethyl biguanide]
  In vitro LDL oxidation by copper, activity: inactive

From US5266591A, “Ethanolamine benzoate compounds” (Adir et Compagnie, priority 1991, dated 1993)
